From article PMC3349648
These are yes or no findings as the source states them, for the method shown. Binding seen in cells or lysates may run through a third protein. Some results given as binding are weak or reduced against the parent protein; the word gives no strength. Blank lines part the entries; values can stand above or below the substance they belong to.

Protein sequences, listed by entry. Tags and fused reporters are not part of them. Residues count along the entry.
UniProt O00141: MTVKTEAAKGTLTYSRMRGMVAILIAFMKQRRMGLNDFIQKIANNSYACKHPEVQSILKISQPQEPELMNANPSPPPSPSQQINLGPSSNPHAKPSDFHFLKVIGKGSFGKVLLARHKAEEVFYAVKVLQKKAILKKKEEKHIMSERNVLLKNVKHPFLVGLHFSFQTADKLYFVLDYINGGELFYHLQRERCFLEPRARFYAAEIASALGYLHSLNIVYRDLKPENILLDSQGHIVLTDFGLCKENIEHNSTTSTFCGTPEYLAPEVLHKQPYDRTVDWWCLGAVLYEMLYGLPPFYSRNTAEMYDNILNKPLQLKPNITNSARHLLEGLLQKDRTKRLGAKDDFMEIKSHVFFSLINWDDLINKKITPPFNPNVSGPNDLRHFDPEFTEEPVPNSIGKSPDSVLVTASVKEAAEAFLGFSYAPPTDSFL
UniProt Q9WVC6: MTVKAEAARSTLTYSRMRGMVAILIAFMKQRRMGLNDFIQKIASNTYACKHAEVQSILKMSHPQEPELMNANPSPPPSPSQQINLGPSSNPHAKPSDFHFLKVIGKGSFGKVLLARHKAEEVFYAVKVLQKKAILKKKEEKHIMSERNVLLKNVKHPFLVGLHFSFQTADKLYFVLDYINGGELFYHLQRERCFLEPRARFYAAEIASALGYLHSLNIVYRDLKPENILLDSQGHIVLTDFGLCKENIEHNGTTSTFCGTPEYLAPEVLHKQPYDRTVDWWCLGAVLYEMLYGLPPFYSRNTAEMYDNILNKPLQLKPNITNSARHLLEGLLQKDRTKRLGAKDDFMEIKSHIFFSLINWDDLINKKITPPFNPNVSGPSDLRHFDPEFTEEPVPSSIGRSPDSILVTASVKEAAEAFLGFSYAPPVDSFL
UniProt Q92542, residues 34-709: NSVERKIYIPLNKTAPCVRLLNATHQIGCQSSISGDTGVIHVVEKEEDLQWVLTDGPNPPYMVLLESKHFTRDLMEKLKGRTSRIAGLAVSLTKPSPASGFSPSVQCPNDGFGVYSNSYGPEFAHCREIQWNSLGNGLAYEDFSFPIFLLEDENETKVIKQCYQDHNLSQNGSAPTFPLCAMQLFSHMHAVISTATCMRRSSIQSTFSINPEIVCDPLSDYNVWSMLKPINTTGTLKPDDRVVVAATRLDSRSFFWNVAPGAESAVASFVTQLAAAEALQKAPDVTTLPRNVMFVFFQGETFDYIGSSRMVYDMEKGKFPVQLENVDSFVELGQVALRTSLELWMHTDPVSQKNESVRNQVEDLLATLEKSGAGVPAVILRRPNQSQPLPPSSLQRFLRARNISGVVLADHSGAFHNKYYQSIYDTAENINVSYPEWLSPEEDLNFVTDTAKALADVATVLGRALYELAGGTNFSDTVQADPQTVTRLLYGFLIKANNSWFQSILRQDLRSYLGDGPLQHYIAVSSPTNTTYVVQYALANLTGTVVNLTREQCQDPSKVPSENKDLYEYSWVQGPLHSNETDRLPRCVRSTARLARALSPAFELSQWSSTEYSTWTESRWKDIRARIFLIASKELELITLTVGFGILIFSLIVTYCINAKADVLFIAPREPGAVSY
UniProt Q06226: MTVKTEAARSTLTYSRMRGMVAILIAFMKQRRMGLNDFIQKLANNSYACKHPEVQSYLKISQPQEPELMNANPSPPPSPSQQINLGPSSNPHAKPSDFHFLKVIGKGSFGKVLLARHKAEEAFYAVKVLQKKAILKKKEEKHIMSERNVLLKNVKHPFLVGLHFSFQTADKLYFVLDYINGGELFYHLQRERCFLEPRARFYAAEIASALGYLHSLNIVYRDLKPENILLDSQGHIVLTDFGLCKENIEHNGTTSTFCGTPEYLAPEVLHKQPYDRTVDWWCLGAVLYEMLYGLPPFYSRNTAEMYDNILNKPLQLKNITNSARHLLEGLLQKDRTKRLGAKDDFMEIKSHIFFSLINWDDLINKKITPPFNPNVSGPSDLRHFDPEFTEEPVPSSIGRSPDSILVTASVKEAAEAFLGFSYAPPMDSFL
UniProt P57716, residues 28-708: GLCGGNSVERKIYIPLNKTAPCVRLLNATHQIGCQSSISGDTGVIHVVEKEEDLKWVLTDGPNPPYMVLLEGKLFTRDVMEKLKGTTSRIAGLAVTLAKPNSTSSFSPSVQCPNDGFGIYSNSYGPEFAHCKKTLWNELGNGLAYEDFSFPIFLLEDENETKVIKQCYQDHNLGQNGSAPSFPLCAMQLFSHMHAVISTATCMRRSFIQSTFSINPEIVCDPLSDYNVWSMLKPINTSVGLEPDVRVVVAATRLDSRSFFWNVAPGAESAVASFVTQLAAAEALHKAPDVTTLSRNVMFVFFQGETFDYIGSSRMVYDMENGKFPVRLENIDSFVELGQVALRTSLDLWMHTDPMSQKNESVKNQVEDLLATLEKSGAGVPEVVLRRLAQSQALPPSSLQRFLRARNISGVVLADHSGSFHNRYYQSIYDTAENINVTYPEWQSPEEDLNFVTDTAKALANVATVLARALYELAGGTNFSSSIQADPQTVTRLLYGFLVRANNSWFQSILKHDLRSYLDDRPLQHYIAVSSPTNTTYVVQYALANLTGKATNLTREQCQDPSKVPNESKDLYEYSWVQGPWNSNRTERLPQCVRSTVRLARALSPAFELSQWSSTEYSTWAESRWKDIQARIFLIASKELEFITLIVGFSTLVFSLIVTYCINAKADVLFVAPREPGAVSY
UniProt Q8CGU6, residues 35-708: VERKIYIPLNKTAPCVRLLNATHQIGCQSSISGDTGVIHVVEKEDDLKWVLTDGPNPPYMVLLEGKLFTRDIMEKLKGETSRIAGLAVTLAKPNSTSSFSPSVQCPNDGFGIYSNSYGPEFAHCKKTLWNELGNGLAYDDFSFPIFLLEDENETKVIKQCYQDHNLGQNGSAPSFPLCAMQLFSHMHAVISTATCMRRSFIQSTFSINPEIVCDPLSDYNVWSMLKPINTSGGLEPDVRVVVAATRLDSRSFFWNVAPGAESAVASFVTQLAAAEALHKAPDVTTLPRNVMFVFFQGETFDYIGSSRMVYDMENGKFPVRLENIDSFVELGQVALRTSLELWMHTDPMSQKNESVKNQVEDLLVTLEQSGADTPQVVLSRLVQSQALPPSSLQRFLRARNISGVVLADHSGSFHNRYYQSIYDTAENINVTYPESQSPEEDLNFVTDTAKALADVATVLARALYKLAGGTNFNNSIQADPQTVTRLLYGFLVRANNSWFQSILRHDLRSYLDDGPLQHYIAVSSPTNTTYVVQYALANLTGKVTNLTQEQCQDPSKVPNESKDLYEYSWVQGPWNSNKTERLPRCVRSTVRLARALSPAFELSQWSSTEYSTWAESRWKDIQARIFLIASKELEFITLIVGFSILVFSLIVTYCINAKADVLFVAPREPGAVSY

Columns and labels:
[1] = molecular target: Flag-tagged serum- and glucocorticoid-induced protein kinase 1 (SGK1) (UniProt O00141); assay: co-IP; HEK293 cells transfected for 48 hours; lysed in RIPA buffer 30 minutes at 4°C; immunoprecipitation with anti-Myc (9E10), anti-V5 or anti-Flag antibodies coupled to protein A-agarose; washed three times in PBS pH 7.4; immunoblot; some samples cotransfected with Flag-SGK1-CA or Flag-SGK1-DN
GST-SGK1 = GST-SGK1 (UniProt O00141); assay: pull-down; purified GST-SGK1 immobilised on GSH-agarose, incubated with lysates of HEK293 cells transfected with V5-NCT, 4°C with rotation; beads washed three times in ice-cold PBS; immunoblot with anti-V5; only the target purified
[2] = molecular target: endogenous SGK1 of mouse embryonic fibroblasts (mouse (endogenous in MEF)) (UniProt Q9WVC6); assay: co-IP; endogenous proteins; MEF cells from SGK1+/+ and SGK1-/- mice lysed, immunoprecipitation with IgG or anti-SGK1 antibody, immunoblot with anti-NCT antibody
[3] = molecular target: V5-tagged wild-type Nicastrin (NCT) (UniProt Q92542); assay: co-IP; HEK293 cells transfected for 48 hours; lysed in RIPA buffer 30 minutes at 4°C; immunoprecipitation with anti-Myc (9E10), anti-V5 or anti-Flag antibodies coupled to protein A-agarose; washed three times in PBS pH 7.4; immunoblot; some samples cotransfected with Flag-SGK1-CA or Flag-SGK1-DN
[4] = molecular target: endogenous SGK1 of Rat2 fibroblasts (rat (endogenous in Rat2)) (UniProt Q06226); assay: co-IP; endogenous proteins; Rat fibroblast Rat2 cells expressing control siRNA or rSGK1 siRNA, untreated or treated with 1 µM dexamethasone for 24 hours; immunoprecipitation with anti-SGK antibody, immunoblot with anti-NCT antibody

binding [1]: binds | binding (GST-SGK1): binds
Substance: V5-tagged wild-type Nicastrin (NCT) (from UniProt Q92542 34-709)

binding [2]: binds
Substance: endogenous Nicastrin (NCT) of mouse embryonic fibroblasts (from UniProt P57716 28-708)

binding [3]: binds
Substance: Flag-tagged serum- and glucocorticoid-induced protein kinase 1 (SGK1) (from UniProt O00141 1-431) (enzyme)

binding [4]: binds
Substance: endogenous Nicastrin (NCT) of Rat2 fibroblasts (from UniProt Q8CGU6 35-708)
